According to PubChem BioAssay AID624297 (National Center for Advancing Translational Sciences (NCATS), 2012):
Out of some 340,000 compounds screened, about 6,200 (1.8%) were called active. This list was built around the results that the source calls inconclusive (neither active nor inactive); the mix of calls is not that of the screen. Calls come from the whole dose curve; as a rule, active = well fitted activation curve with a large enough effect; inconclusive = small, poorly fitted or top-dose-only effect; inactive = no such curve, though single readings can be large or run the other way. Where the call is inconclusive, the potency comes from a doubtful curve fit.
Potency is the fitted concentration of half-maximal effect.

Experiment: A quantitative high throughput screen for small molecules that induce DNA re-replication in SW480 colon adenocarcinoma cells. Note: nearly all actives have a fitted effect of over 55% in size.
Conditions: Hoechst DNA content imaging, 48 h; series mostly up to 46.1 µM
Method in brief: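 Image-based read-out: total Hoechst fluorescence of nuclei (405 nm excitation, 500-530 nm emission), with hits raising the fraction of high-intensity nuclei. SW480 colon cells incubated 48 hr with compounds at 37 C.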
With COc1cc(OC)nc(-n2ncc(OC)c(Br)c2=O)n1 the Potency was inconclusive: 29.1 µM [activator, single point]. For CC(=O)NC(=O)NC1OC(=O)C(Cl)=C1Cl (centres undefined), the Potency was inconclusive: 18.4 µM [activator, single point]. In the case of O=C1OC(c2ccc(O)cc2)(c2ccc(O)cc2)c2ccccc21, the Potency is reported as inconclusive: 29.1 µM [activator, single point]. With CCOc1ccc(NC(=O)c2ccc(NC(=O)c3ccc(NC(N)=O)cc3)cc2)cc1 the Potency was “inactive”. For O=C(c1ccccc1)N1CCOC(O)(c2ccccc2)C1c1ccccc1 (centres undefined), the Potency was inconclusive: 3.66 µM [activator, full curve]. For O=C(CN1C(=O)NC2(CCCC2)C1=O)NNC(=O)c1ccc(F)cc1, the Potency was “inactive”. With O=C(CCN1CCOCC1)NNC(=O)c1ccc([N+](=O)[O-])cc1[N+](=O)[O-] the Potency was inconclusive: 32.6 µM [activator, partial curve, poor fit]. For Cc1cc2n(n1)SC(Nc1ccc(F)c(Cl)c1)N2 (centres undefined), the Potency was inconclusive: 29.1 µM [activator, single point]. With COc1ccc2c(C)cc(=O)oc2c1 the Potency was inconclusive: 0.184 µM [activator, single point]. For O=C(NCc1ccco1)c1ccc(Cl)c(S(=O)(=O)N2CCc3ccccc32)c1, the Potency was “inactive”. In the case of Cc1ccc(S(=O)(=O)N2CCOCC2)cc1C(=O)NC1CCSc2ccccc21 (centres undefined), the Potency is reported as inconclusive: 32.6 µM [activator, partial curve, poor fit]. In the case of CC(NCCN(C)C)C1CCC2C3CCc4cc(O)ccc4C3CCC12C (centres undefined), the Potency is reported as inconclusive: 29.1 µM [activator, single point]. With Cc1ccc(C2N(c3nccs3)C(=O)C3CCCN32)cc1 (centres undefined) the Potency was “inactive”. With O=C(NCCC1CCCCN1S(=O)(=O)c1cccs1)C(=O)Nc1ccc(F)cc1 (centres undefined) the Potency was inconclusive: 22.4 µM [activator, single point]. For CCOC(=O)c1ccc(NC(=O)NCCc2cnc[nH]2)cc1, the Potency was inconclusive: 29.1 µM [activator, single point]. With COc1cccc(NC(=O)[C@@H]2CCC(=O)N2C2OC(=O)c3ccccc32)c1 (some centres undefined) the Potency was “inactive”. With Cc1nn2c([nH]c(=O)c3ccccc32)c1C=O the Potency was inconclusive: 23.1 µM [activator, single point]. With CC(C)N(c1ccccc1)c1ccc(NC(=O)CCl)cc1 the Potency was inconclusive: 0.0041 µM [activator, full curve, poor fit]. For CCN(CC)CCNC(=O)c1ccc(NC(=O)c2cccc(S(=O)(=O)N3c4ccccc4CC3C)c2)cc1 (centres undefined), the Potency was inconclusive: 29.1 µM [activator, single point]. In the case of Cc1cccc(-n2c(C)cc(C=C3C(=O)c4ccccc4C3=O)c2C)c1, the Potency is reported as “inactive”. With O=C(Nc1nnc(COc2ccc(F)cc2)s1)c1ccco1 the Potency was inconclusive: 0.461 µM [activator, partial curve, poor fit]. For COc1ccccc1-n1cc(-c2ccc(C)cc2)[nH]c1=S, the Potency was inconclusive: 20.6 µM [activator, single point]. With O=C(Cn1c(=O)[nH]c2ccsc2c1=O)N1CCN(c2ccc(F)cc2)CC1 the Potency was “inactive”. For COc1ccc(-c2cc3c(=O)n(CC(=O)NCCCN4CCC(Cc5ccccc5)CC4)ncn3n2)cc1, the Potency was active: 5.8 µM. In the case of COCCCNC(=O)/C(C#N)=C/c1c(N2CCN(C)CC2)nc2ccccn2c1=O, the Potency is reported as inconclusive: 29.1 µM [activator, single point]. With O=C(Nc1cc(S(=O)(=O)N2CCCCC2)ccc1N1CCOCC1)c1ccc(C(F)(F)F)cc1 the Potency was inconclusive: 32.6 µM [activator, partial curve, poor fit]. In the case of O=C(CNC(=O)c1ccc(Br)o1)NC12CC3CC(CC(C3)C1)C2, the Potency is reported as inconclusive: 18.4 µM [activator, partial curve]. With O=C(NC1CCCCC1)C(c1ccccc1)N1CCC2(CC1)OCCO2 (centres undefined) the Potency was inconclusive: 0.13 µM [activator, partial curve, poor fit]. For O=c1[nH]nc(Cc2ccc(-c3ccc(Cl)cc3)o2)c2ccccc12, the Potency was inconclusive: 32.6 µM [activator, partial curve, poor fit]. In the case of Cc1cccc[n+]1CC(=O)c1ccc(Cl)cc1, the Potency is reported as “inactive”. For Cc1cc(C)c(C#N)c(SCc2ccccc2)n1, the Potency was “inactive”. For CC(CC(=O)c1ccc(F)cc1)N1CCN(c2ccccc2)CC1 (centres undefined), the Potency was inconclusive: 20.6 µM [activator, single point]. For Cc1ccc(NC(=S)NC(NC(=O)c2ccco2)C(Cl)(Cl)Cl)cc1 (centres undefined), the Potency was “inactive”. In the case of CC1(C)CC(=O)/C(=C\c2cccc([N+](=O)[O-])c2)C(C)(C)N1, the Potency is reported as inconclusive: 20.6 µM [activator, single point]. With COC(=O)CSc1nc(SC)nc2c1sc1nc(-c3ccco3)c3c(c12)CC(C)(C)OC3 the Potency was “inactive”. For COc1ccc2c(c1)c(CC(=O)Nc1nnc(C3CC3)s1)c(C)n2C(=O)c1ccc(Cl)cc1, the Potency was inconclusive: 8.2 µM [activator, partial curve]. In the case of O=C(CSc1nnc(-c2ccc(Cl)cc2)n1CC1CCCO1)NC1CCS(=O)(=O)C1 (centres undefined), the Potency is reported as inconclusive: 16.4 µM [activator, single point]. In the case of O=C(N/N=C/C(Br)=C/c1ccccc1)c1cccnc1, the Potency is reported as inconclusive: 29.1 µM [activator, single point]. For CCOC(=O)c1c(/N=C/N(C)C)sc(/C=N/Nc2ccccc2)c1-c1ccc(Cl)cc1, the Potency was inconclusive: 18.4 µM [activator, single point]. For CCOC(=O)c1cccc(NC(=O)c2ccc(F)cc2F)c1, the Potency was inconclusive: 23.1 µM [activator, partial curve, poor fit]. In the case of Cc1ccccc1-n1c(SC(C)C(=O)NCC2CCCO2)nnc1-c1ccncc1 (centres undefined), the Potency is reported as “inactive”. With O=C(CN1CCN(Cc2ccccc2)CC1)c1ccc(Br)cc1 the Potency was inconclusive: 29.1 µM [activator, partial curve, poor fit]. In the case of Cc1cc(Nc2cccc(Cl)c2)nc(-c2ccccc2O)n1, the Potency is reported as active: 29.1 µM. With O=C(NCC(c1cccs1)N1CCOCC1)C1CCN(S(=O)(=O)c2c(Cl)cccc2Cl)CC1 (centres undefined) the Potency was “inactive”.
